Our source for the cell number change and AC50 values is PubChem BioAssay AID2685 (National Center for Advancing Translational Sciences (NCATS), 2010).

The test can be described thus: qHTS Assay for Lipid Storage Modulators in Drosophila S3 Cells.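 On cell number change: cells counted by Cell Tracker Red CMTPX staining in the red channel.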 The following applies: BODIPY lipid droplet fluorescence, 18-24 h; for cell number change: measured here: cell count max response, cells fed with added oleic acid. The method, boiled down:
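Drosophila S3 cells got compounds at several concentrations plus oleic acid (400 uM solution). Laser-scanning cytometry with 488 nm excitation read lipid droplets at 500-530 nm and cells at 575-640 nm. Percent activity was relative to 20 uM Triacsin C.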
On the technique in general: In qHTS, concentration-response curves come from the screen itself.

The mark [1] stands for this setting: measured here: cell number channel AC50, cells fed with added oleic acid.
Where [2] appears, read: measured here: lipid fluorescence (Fed channel) AC50, cells fed with added oleic acid.

The list shows a part of the results. Further columns of the screen follow, without active or inactive calls. Compounds called inactive in the main read-out are mostly missing here. Potencies come from curve fits of mixed quality, noted in brackets.

Broadly, the AC50 is the midpoint of the concentration-response curve, whichever way the signal moves. Low readings indicate greater potency, high ones weaker potency. `O=C(CN1CCN(S(=O)(=O)c2ccc(Cl)cc2)CC1)NCc1cccs1`: the cell number change turned out to be 63%. Moreover, the AC50 under setting [1] was 20600 nM [rising, single point]. Regarding `Cc1ccc(C)c(NC(=O)c2cc3ccccc3o2)c1`, the cell number change is 19.6%. Still for that read-out and setting: the figure for `CNc1nc2c3ccccc3n(C(C)=O)c2s1` is -5.96%.

For `COc1ccc(NC(=O)C(=O)NCCC2CCCCN2S(=O)(=O)c2cccs2)cc1` (centres undefined), the cell number change was found to be 5.21%. Besides, the AC50 under setting [2] was 184 nM [rising, full curve].

For `O=C1SCC(c2ccc(Cl)cc2Cl)=NN1Cc1nnc(-c2ccccc2)o1`, the cell number change came to 33%. The AC50 under setting [1] was 7310 nM [rising, partial curve]. The AC50 under setting [2] is 29100 nM [rising, single point]. On to `O=C(CCCO)c1ccc2c(c1)OCCO2`, for which the AC50 under setting [2] was 5.8 nM [falling, full curve, poor fit]. Regarding `CC(=O)O[C@@]1(C)C[C@@H](O)[C@]2(O)C=CO[C@@H](O[C@@H]3O[C@H](CO)[C@@H](O)[C@H](O)[C@H]3O)[C@@H]21`, the cell number change was -16.6%. The AC50 under setting [2] was 16400 nM [falling, single point].

Turning to `CCCCOc1ccc(CSc2n[nH]c(C)n2)cc1`, under setting [2], the AC50 is 18400 nM [rising, single point]. For the molecule `O=C(Nc1cccnc1)c1ccc(Cl)c(S(=O)(=O)N2CCCCC2)c1`, the cell number change is -4.95%. Moreover, the AC50 under setting [2] is 29100 nM [falling, single point]. In the case of `Cc1csc(Nc2ccc(C(=O)O)cc2)n1`, the cell number change amounted to 19.3%. For the same molecule, the AC50 under setting [1] is 4610 nM [falling, single point]. Under setting [2], the AC50 is 5800 nM [falling, single point]. In the case of `CC(C(=O)NCCc1ccc(Cl)cc1)n1c(=O)c2cccn2c2cccnc21` (centres undefined), the AC50 under setting [2] is 731 nM [falling, full curve]. For the molecule `COc1ccc(CCCNC(=O)CC#N)cc1OC`, the cell number change was -25.1%. Further, the AC50 under setting [1] was 4.11 nM [falling, full curve, poor fit]. Also, the concentration at half-maximal activity (AC50) under setting [2] is 461 nM [falling, full curve, poor fit]. In the case of `S=c1[nH]nc(C2CCCCC2)o1`, the cell number change was -1.36%. Besides, the AC50 under setting [1] is 731 nM [falling, full curve]. `CCOC(=O)c1c(N)sc(C(=O)Nc2ccccc2F)c1C`: the cell number change was 8.59%. Moreover, the AC50 under setting [2] is 103 nM [rising, full curve, poor fit].

In the case of `COc1ccc(CN(C)C(=O)c2[nH]c(C)c(C(C)=O)c2C)c(OC)c1OC`, the cell number change stood at 16.2%. Turning to `Cc1ccc(Cn2ncc3c(NCCN(C)C)ncnc32)cc1`, the cell number change amounted to 31.7%. Also, the AC50 under setting [1] was 4.11 nM [rising, full curve, poor fit]. On to `CCCc1cc(C(=O)Nc2c(C)n(C)n(-c3ccccc3)c2=O)no1`, for which, under setting [2], the AC50 is 29100 nM [rising, single point]. As to `Cn1c(=O)c2c(nc(NCc3ccccc3)n2CC(=O)NCc2ccccc2)n(C)c1=O`, the cell number change is -1.75%. Besides, the AC50 under setting [2] is 731 nM [rising, single point]. Regarding `CSCCC(NS(=O)(=O)c1ccc(C)cc1)C(=O)NC1CCCCCC1` (centres undefined), the cell number change stood at 7.33%. For the same molecule, the AC50 under setting [2] is 23100 nM [rising, single point]. On to `CC(=O)Nc1ccc(NS(C)(=O)=O)cc1`, for which the cell number change is -42.3%. Further, the concentration at half-maximal activity (AC50) under setting [1] is 3660 nM [falling, full curve]. Moreover, the AC50 under setting [2] was 3660 nM [falling, full curve].

With `CCC(C)C(NC(=O)c1ccccc1NC(=O)c1ccc(OC)cc1)C(=O)NCCCn1ccnc1` (centres undefined), the cell number change came out at 4.58%.

As to `NS(=O)(=O)c1ccc(NC(=O)CCC(=O)c2ccc(Cl)s2)cc1`, the cell number change is -23.8%. Under setting [2], the AC50 was 1300 nM [rising, partial curve].

Regarding `COc1ccc(-n2c(C)cc(/C=C3\C(=N)N4N=C(CC(=O)N5CCOCC5)SC4=NC3=O)c2C)cc1`, the cell number change was determined as 30.9%. The AC50 under setting [1] is 1840 nM [rising, full curve]. Further, the AC50 under setting [2] is 580 nM [rising, single point]. Take `COc1ccc(NC(=O)C(c2ccccc2)N(C)C(=O)CNC(C)=O)cc1` (centres undefined): the cell number change was -11.2%. As for `O=c1cc(O)nc(-c2ccccc2)s1`, the cell number change turned out to be 35%. The AC50 under setting [2] is 7310 nM [rising, partial curve, poor fit]. `Cn1c(-c2ccsc2)c(-c2cccs2)c2cc(-c3cccc4[nH]ccc34)ccc21`: the cell number change turned out to be 18.4%. The same measure, in the same setting: the figure for `Cc1ccc(NC(=S)c2nc3ccccc3[nH]2)c(C)c1` is 1.6%; for `O=[N+]([O-])c1ncccc1OCc1ccc(-c2ccccc2)cc1` it is -8.33%. `CCOc1ccccc1CNC(=O)C1CCN(C(=O)c2sccc2-n2cccc2)CC1`: the cell number change is -27.2%. Moreover, the AC50 under setting [2] was 4.61 nM [rising, full curve, poor fit]. For the molecule `COc1ccc(C(C#N)(CC(=O)O)c2cnccn2)cc1OC` (centres undefined), the cell number change was 19%. In addition, the AC50 under setting [2] is 731 nM [rising, full curve, poor fit]. For the molecule `Cc1ccoc1C(=O)Nc1ccc(CC(=O)O)cc1`, the cell number change was -29.5%. In addition, the AC50 under setting [1] was 1460 nM [falling, full curve, poor fit]. In addition, under setting [2], the AC50 was 3660 nM [falling, full curve]. On to `COc1ccc(C2=C(c3ccc([N+](=O)[O-])cc3)C(=O)OC2)cc1`, for which the cell number change turned out to be 25.1%. The AC50 under setting [2] was 651 nM [rising, single point]. `C/C(=N\Nc1nc(-c2ccc(C)cc2C)cs1)c1cc2ccccc2oc1=O`: the cell number change came out at 16.3%. Further, under setting [2], the AC50 is 25900 nM [rising, partial curve, poor fit]. With `O=C1CCCN1CCCNc1ncnc2c1[nH]c1ccc(Cl)cc12`, the AC50 is 3260 nM [rising, partial curve] under setting [1] and 3660 nM [rising, partial curve] under setting [2]. For the molecule `CCCCN(C)C(=O)c1cc2cc3ccc(OC)cc3nc2s1`, the cell number change is -5.74%. In addition, under setting [2], the AC50 is 4610 nM [falling, full curve, poor fit]. With `CCOP(=O)(OCC)C(NC(=O)NS(=O)(=O)c1ccc(C)cc1)c1ccccc1` (centres undefined), under setting [2], the AC50 was 291 nM [rising, partial curve]. As to `O=C(Cn1ncc2c1-c1ccccc1OC2)N(Cc1ccco1)C1CCCCC1`, the cell number change amounted to 18.2%. For the same molecule, under setting [1], the half-maximal activity concentration (AC50) is 1160 nM [rising, single point]. In addition, the AC50 under setting [2] is 9200 nM [rising, single point]. Turning to `COc1cccc(C2c3[nH]c4ccccc4c3C[C@H]3C(=O)N(CCCO)CC(=O)N23)c1OC` (some centres undefined), the cell number change amounted to 22.5%. In addition, under setting [2], the AC50 is 6510 nM [rising, single point]. As for `O=C(CSc1nc2ccccc2o1)Nc1ccc(N2CCOCC2)c(Cl)c1`, the cell number change is -31.4%. The AC50 under setting [1] is 11600 nM [falling, partial curve]. Also, under setting [2], the AC50 is 16400 nM [falling, partial curve, poor fit]. As for `COc1cc(/C=N/NC(=O)c2c(C)nc3ccc(Cl)cn23)cc(OC)c1OC`, the cell number change is -8.42%.

Turning to `Fc1ccc(C2CCCCN2Cc2nc(CC3CC3)no2)cc1` (centres undefined), the cell number change was 5.58%. The AC50 under setting [2] is 116 nM [rising, full curve, poor fit]. Consider `Cc1ccc(NC(=O)CCN2CCN(C)CC2)cc1`, for which the cell number change is -12.3%. Further, the AC50 under setting [2] was 58 nM [falling, full curve, poor fit]. Turning to `Cc1ccccc1C(=O)NCCSc1ccccc1`, the AC50 under setting [2] was 651 nM [falling, single point]. For `CCCCOC(=O)C1CN(c2ccccc2)N=C1C(C)=O` (centres undefined), the cell number change is -55.6%. Besides, the AC50 under setting [1] is 29100 nM [falling, single point]. Further, under setting [2], the AC50 was 29100 nM [falling, single point]. In the case of `Fc1ccc(C(CNC(=S)NC2CCCCC2)N2CCOCC2)cc1` (centres undefined), the cell number change was found to be 6.22%. Further, under setting [1], the AC50 is 6510 nM [rising, single point]. For the same molecule, the AC50 under setting [2] is 3660 nM [rising, partial curve]. In the case of `Cc1cc(SCC(=O)Nc2cccnc2Cl)nc2ccccc12`, the AC50 is, setting by setting: under setting [1], 651 nM [rising, single point]; under setting [2], 651 nM [rising, partial curve, poor fit]. For the molecule `CCn1c(COc2ccc(C)cc2)nnc1SCc1ccc(C#N)cc1`, the cell number change was -32.3%. Moreover, under setting [1], the AC50 was 18400 nM [falling, single point]. In addition, the AC50 under setting [2] was 580 nM [rising, single point]. On to `CC1CCN(c2nc3c(c(=O)n(C)c(=O)n3C)n2CCSc2nc3ccccc3s2)CC1`, for which the cell number change is -19.9%. Also, the AC50 under setting [2] is 206 nM [falling, full curve, poor fit]. For `Cc1ccc(N2C(=O)c3ccccc3C2=O)cc1`, the cell number change was -6.52%. In addition, under setting [2], the AC50 was 731 nM [falling, full curve, poor fit]. Consider `CCn1nc(C(=O)Nc2ccccc2N2CCCC2)c2ccccc2c1=O`, for which the cell number change is 9.24%. Turning to `COC(=O)CSc1nnc(-c2ccc(S(=O)(=O)NCc3cccs3)cc2)o1`, the AC50 was 820 nM [falling, full curve] under setting [1] and 920 nM [falling, full curve] under setting [2].

Consider `CCSc1nnc(-c2cccnc2)n1-c1ccc(C)c(Cl)c1`, for which the AC50 under setting [1] was 580 nM [falling, single point] and the AC50 under setting [2] is 920 nM [rising, full curve, poor fit]. `COc1ccc(N2CCN(Cc3nnc(-c4ccccc4)o3)CC2)cc1`: the cell number change was 0.603%. Moreover, the AC50 under setting [2] is 25900 nM [rising, single point]. In the case of `COc1cccc(/C=N/NC(=O)c2ccccc2)c1OS(=O)(=O)c1ccccc1`, the cell number change was -2.84%. For the same molecule, the AC50 under setting [1] is 2310 nM [falling, partial curve, poor fit]. As for `COc1ccccc1CNC(=S)NCc1ccc(F)cc1`, the cell number change amounted to 10.8%. Also, the AC50 under setting [2] was 794 nM [falling, partial curve].

Regarding `O=C(c1ccco1)N1CCN(C(=S)Nc2ccc(Br)cc2Cl)CC1`, the cell number change was -15.6%. `Cc1ccccc1Cn1nc(C)c(NC(=O)c2cc(-c3cccs3)on2)c1C`: the cell number change is -4.44%. For the same molecule, the AC50 under setting [2] is 184 nM [rising, full curve, poor fit]. As to `O=C(NNC(=S)Nc1ccc(Cl)cc1)c1cccs1`, the cell number change was -27.1%. The AC50 under setting [2] was 32600 nM [falling, partial curve, poor fit]. Take `CCN1CCN(CCNC(=O)c2ccc(/C=C3/Sc4ccccc4N(Cc4ccccc4C)C3=O)cc2)CC1`: the cell number change was -56.5%. The AC50 under setting [1] is 16400 nM [falling, partial curve]. Moreover, the AC50 under setting [2] is 18400 nM [falling, partial curve]. On to `CCN(CC)c1cccc(OC(=O)c2cccnc2Cl)c1`, for which the AC50 under setting [2] is 29100 nM [rising, single point].
